The record followed here is patent US20010011078A1 (University of Texas, published 2001).

The target of this experiment is T1, recombinant DFF40 tagged with six histidine at its C-terminus (human) (UniProt O76075).
T1 sequence: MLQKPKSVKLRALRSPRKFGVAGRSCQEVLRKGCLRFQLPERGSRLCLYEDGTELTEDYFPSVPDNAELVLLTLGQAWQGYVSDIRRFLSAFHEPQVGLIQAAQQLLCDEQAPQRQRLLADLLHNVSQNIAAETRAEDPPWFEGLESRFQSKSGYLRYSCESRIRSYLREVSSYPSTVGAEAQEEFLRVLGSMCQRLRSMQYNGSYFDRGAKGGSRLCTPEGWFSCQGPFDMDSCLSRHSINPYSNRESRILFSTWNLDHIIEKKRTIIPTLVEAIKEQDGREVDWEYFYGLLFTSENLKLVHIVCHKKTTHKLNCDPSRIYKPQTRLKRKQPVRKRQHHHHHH
Briefly: co-purification of untagged DFF45 with C-terminally His-tagged DFF40 on a nickel affinity column (E. coli co-expression).

Results are given in words; binding and its absence hold for the method and conditions named. Binding seen in cells or lysates may run through a third protein. Some entries that bind do so weakly or less than the wild type. Tags and fused reporters may be left off the sequences shown.

B1: DFF45 (45-kDa subunit of DNA fragmentation factor), native human protein (other)
chain: MEVTGDAGVPESGEIRTLKPCLLRRNYSREQHGVAASCLEDLRSKACDILAIDKSLTPVTLVLAEDGTIVDDDDYFLCLPSNTKFVALASNEKWAYNNSDGGTAWISQESFDVDETDSGAGLKWKNVARELKEDLSSIILLSEEDLQMLVDAPCSDLAQELRQSCATVQRLQHTLQQVLDQREEVRQSKQLLQLYLQALEKEGSLLSKQEESKAAFGEEVDAVDTGMSRETSSDVALASHILTALREKQAPELSLSSQDLELVTKEDPKALAVALNWDIKKTETVQEACERELALRLQQTQSLHSLRSISASKASPPGDLQNPKRARQDPT
notes: Native protein, purified from HeLa S-100 as part of the DFF heterodimer, or endogenous in 293 and U937 cell extracts; also called 45-kDa polypeptide; endogenous protein
B1: the binding entry was “binds”.
